Source: PubChem BioAssay AID212 (DTP/NCI, 2004)
The list shows only some results of the screen, not a fair sample: it gathers tests that were run many times, whatever their T/C, doses with no T/C, and many T/C values between a quarter and a half above the control. Further doses and runs are listed elsewhere. T/C gives the treated animals as a percentage of the vehicle group. Schedules are NCI's codes, taken here to give the interval after Q, in days (D) or hours (H), and the number of doses after X. Some T/C values are followed by the survivors on the day toxicity was checked, most often the fifth; without a count, all were alive then. Some entries were tested several times; the values are given in rising order. Some entries give survivors of the animals treated and no T/C: the source holds a T/C of zero for them, seemingly a mark for toxic or unscored doses. Survivors were counted at the toxicity check, usually on the fifth day, unless a day is given; later deaths do not show.

System: BDF1 mice, colon carcinoma 38 sc, T/C %
Assay: NCI In Vivo Anticancer Drug Screen. Data for tumor model Colon Carcinoma 38 (subcutaneous) in B6D2F1 (BDF1) mice
Conditions: for T/C: evaluated on day 20
Method in brief: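 Mice with transplanted tumors are treated with compound or vehicle. Survival or tumor size is then measured in both groups. The ratio of treated to control gives the reported figure.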

[1] = T/C endpoint: median tumor weight (est.), dose: 50.0 mg/kg/injection, schedule: Q07DX002 (ip), vehicle: Klucel (hydroxypropylcellulose) (HPC), higher T/C = larger tumour
[2] = T/C endpoint: median tumor weight (est.), dose: 100.0 mg/kg/injection, schedule: Q07DX002 (ip), vehicle: Klucel (hydroxypropylcellulose) (HPC), higher T/C = larger tumour
[3] = T/C endpoint: median tumor weight (est.), dose: 200.0 mg/kg/injection, schedule: Q07DX002 (ip), vehicle: suspension in saline, higher T/C = larger tumour
[4] = T/C endpoint: median tumor weight (est.), dose: 400.0 mg/kg/injection, schedule: Q07DX002 (ip), vehicle: saline with Tween-80, higher T/C = larger tumour
[5] = T/C endpoint: median tumor weight (est.), dose: 800.0 mg/kg/injection, schedule: Q07DX002 (ip), vehicle: saline with Tween-80, higher T/C = larger tumour
[6] = T/C endpoint: median tumor weight (est.), dose: 200.0 mg/kg/injection, schedule: Q07DX002 (ip), vehicle: Klucel (hydroxypropylcellulose) (HPC), higher T/C = larger tumour
[7] = T/C endpoint: median tumor weight (est.), dose: 400.0 mg/kg/injection, schedule: Q07DX002 (ip), vehicle: Klucel (hydroxypropylcellulose) (HPC), higher T/C = larger tumour
[8] = T/C endpoint: median tumor weight (est.), dose: 12.5 mg/kg/injection, schedule: Q07DX002 (ip), vehicle: saline with Tween-80, higher T/C = larger tumour
[9] = T/C endpoint: median tumor weight (est.), dose: 50.0 mg/kg/injection, schedule: Q07DX002 (ip), vehicle: saline with Tween-80, higher T/C = larger tumour
[10] = T/C endpoint: median tumor weight (est.), dose: 20.0 mg/kg/injection, schedule: Q07DX002 (ip), vehicle: saline, higher T/C = larger tumour
[11] = T/C endpoint: median tumor weight (est.), dose: 100.0 mg/kg/injection, schedule: Q07DX002 (ip), vehicle: saline with Tween-80, higher T/C = larger tumour

C=C1C(C)C2C(Cc3ccccc3)NC(=O)C23OC(=O)/C=C\CC(=O)CCC(C)C/C=C/C3C1O (stereo not drawn)
survivor count (T/C endpoint: median tumor weight (est.), dose: 12.5 mg/kg/injection, schedule: Q07DX002 (ip), vehicle: Klucel (hydroxypropylcellulose) (HPC), higher T/C = larger tumour): 5 of 10 on day 20
survivor count (T/C endpoint: median tumor weight (est.), dose: 25.0 mg/kg/injection, schedule: Q07DX002 (ip), vehicle: Klucel (hydroxypropylcellulose) (HPC), higher T/C = larger tumour): 2 of 9 on day 20
survivor count [1]: 0 of 10 on day 20
survivor count [2]: 0 of 10 on day 20

F[B-](F)(F)F
T/C (T/C endpoint: median tumor weight (est.), dose: 100.0 mg/kg/injection, schedule: Q07DX002 (ip), vehicle: gum acacia, higher T/C = larger tumour): 128 % of control

NC(=S)N/N=C/c1ccc(O)cn1
T/C [3]: 125 % of control

COc1cc(C(=O)N/N=C/c2cccc([N+](=O)[O-])c2)cc(OC)c1OC
T/C [4]: 131 % of control [9 of 10 alive on day 20]
T/C [5]: 140 % of control [8 of 10 alive on day 20]

O=C1C2(Cl)C3(Cl)C4(Cl)C(Cl)(Cl)C5(Cl)[C@]3(Cl)C1(Cl)[C@]5(Cl)C24Cl (stereo partly drawn)
survivor count [6]: 0 of 10 on day 20
survivor count [7]: 0 of 10 on day 20

O=C(/C=C(\Cl)C(=O)NO)NO
T/C (T/C endpoint: median tumor weight (est.), dose: 50.0 mg/kg/injection, schedule: Q07DX002 (ip), vehicle: suspension in saline, higher T/C = larger tumour): 127 % of control
survivor count (T/C endpoint: median tumor weight (est.), dose: 200.0 mg/kg/injection, schedule: Q07DX002 (ip), vehicle: saline, higher T/C = larger tumour): 3 of 10 on day 20
survivor count [3]: 1 of 10 on day 20
survivor count (T/C endpoint: median tumor weight (est.), dose: 400.0 mg/kg/injection, schedule: Q07DX002 (ip), vehicle: saline, higher T/C = larger tumour): 0 of 10 on day 20
survivor count (T/C endpoint: median tumor weight (est.), dose: 400.0 mg/kg/injection, schedule: Q07DX002 (ip), vehicle: suspension in saline, higher T/C = larger tumour): 0 of 10 on day 20

C=C1C(=O)C23[C@H](O)C1CC[C@H]2[C@]12COC3(O)[C@@H](O)[C@@H]1C(C)(C)CC[C@@H]2O
T/C (T/C endpoint: median tumor weight (est.), dose: 1.56 mg/kg/injection, schedule: Q07DX002 (ip), vehicle: saline with Tween-80, higher T/C = larger tumour): 132 % of control
T/C (T/C endpoint: median tumor weight (est.), dose: 6.25 mg/kg/injection, schedule: Q07DX002 (ip), vehicle: saline with Tween-80, higher T/C = larger tumour): 126 % of control
T/C [8]: 128 % of control
T/C (T/C endpoint: median tumor weight (est.), dose: 20.0 mg/kg/injection, schedule: Q07DX002 (ip), vehicle: Klucel (hydroxypropylcellulose) (HPC), higher T/C = larger tumour): 146 % of control
survivor count (T/C endpoint: median tumor weight (est.), dose: 40.0 mg/kg/injection, schedule: Q07DX002 (ip), vehicle: Klucel (hydroxypropylcellulose) (HPC), higher T/C = larger tumour): 5 of 10 on day 20
survivor count [9]: 2 of 10 on day 20 and 6 of 10 on day 20
survivor count (T/C endpoint: median tumor weight (est.), dose: 80.0 mg/kg/injection, schedule: Q07DX002 (ip), vehicle: Klucel (hydroxypropylcellulose) (HPC), higher T/C = larger tumour): 0 of 10 on day 20
survivor count (T/C endpoint: median tumor weight (est.), dose: 160.0 mg/kg/injection, schedule: Q07DX002 (ip), vehicle: Klucel (hydroxypropylcellulose) (HPC), higher T/C = larger tumour): 0 of 10 on day 20

CC(C)CC(NC(=O)CF)C(=O)O (stereo not drawn)
survivor count [10]: 2 of 10 on day 20 and 4 of 10 on day 20

COC1=C(C)C(=O)C2=C(C1=O)C(CO)N1C(C#N)C3CC4C(C1C2N1CCOC41)N3C (stereo not drawn)
T/C (T/C endpoint: median tumor weight (est.), dose: 1.0 mg/kg/injection, schedule: Q07DX002 (ip), vehicle: saline + alcohol, higher T/C = larger tumour): 138 % of control

CC(C)CCCCCCCCCCCCC(=O)NCC(=O)NC1C(C)OC(Nc2ncnc3nc[nH]c23)C(O)C1O (stereo not drawn)
T/C (T/C endpoint: median tumor weight (est.), dose: 2.0 mg/kg/injection, schedule: Q07DX002 (ip), vehicle: distilled water + Tween-80, higher T/C = larger tumour): 88, 100, 111 [9 of 10 alive on day 20], 201 % of control
T/C (T/C endpoint: median tumor weight (est.), dose: 4.0 mg/kg/injection, schedule: Q07DX002 (ip), vehicle: distilled water + Tween-80, higher T/C = larger tumour): 44, 117 [7 of 10 alive on day 20], 129 [8 of 10 alive on day 20], 161 % of control
T/C (T/C endpoint: median tumor weight (est.), dose: 8.0 mg/kg/injection, schedule: Q07DX002 (ip), vehicle: distilled water + Tween-80, higher T/C = larger tumour): 59, 71, 87 [8 of 10 alive on day 20], 100 % of control
T/C (T/C endpoint: median tumor weight (est.), dose: 16.0 mg/kg/injection, schedule: Q07DX002 (ip), vehicle: distilled water + Tween-80, higher T/C = larger tumour): 34 [8 of 9 alive on day 20], 39 [9 of 10 alive on day 20], 59 [9 of 10 alive on day 20], 113 % of control [7 of 10 alive on day 20]
survivor count (T/C endpoint: median tumor weight (est.), dose: 32.0 mg/kg/injection, schedule: Q07DX002 (ip), vehicle: distilled water + Tween-80, higher T/C = larger tumour): 0 of 10 on day 20, 5 of 10 on day 20, 6 of 10 on day 20

BrC1CC(Br)c2c1c1c(c3c2C(Br)CC3Br)C(Br)CC1Br (stereo not drawn)
T/C [8]: 138 % of control
T/C [11]: 131 and 133 % of control

CNc1nc(NC)nc(NC)n1
T/C (T/C endpoint: median tumor weight (est.), dose: 25.0 mg/kg/injection, schedule: Q07DX003 (ip), vehicle: Klucel (hydroxypropylcellulose) (HPC), higher T/C = larger tumour): 147 % of control [9 of 10 alive]

NC(=O)c1[nH]nc(C2OC(CO)C(O)C2O)c1O (stereo not drawn)
survivor count (T/C endpoint: median survival time, dose: 6.0 mg/kg/injection, schedule: Q04DX004 (ip), vehicle: saline, higher T/C = longer survival): 0 of 8 on day 93
survivor count (T/C endpoint: median survival time, dose: 12.0 mg/kg/injection, schedule: Q04DX004 (ip), vehicle: saline, higher T/C = longer survival): 0 of 8 on day 93
T/C (T/C endpoint: median tumor weight (est.), dose: 1.25 mg/kg/injection, schedule: Q07DX002 (ip), vehicle: saline, higher T/C = larger tumour): 130 % of control
T/C (T/C endpoint: median tumor weight (est.), dose: 2.5 mg/kg/injection, schedule: Q07DX002 (ip), vehicle: saline, higher T/C = larger tumour): 141 % of control
T/C (T/C endpoint: median tumor weight (est.), dose: 2.5 mg/kg/injection, schedule: Q07DX003 (ip), vehicle: saline, higher T/C = larger tumour): 141 % of control
survivor count [10]: 6 of 10 on day 20
survivor count (T/C endpoint: median tumor weight (est.), dose: 40.0 mg/kg/injection, schedule: Q07DX002 (ip), vehicle: saline, higher T/C = larger tumour): 5 of 10 on day 20

N#CC(C#N)=C/C=C/c1cccc([N+](=O)[O-])c1
T/C (T/C endpoint: median tumor weight (est.), dose: 3.12 mg/kg/injection, schedule: Q07DX003 (ip), vehicle: Klucel (hydroxypropylcellulose) (HPC), higher T/C = larger tumour): 142 % of control

CCc1nc(N)nc(N)c1-c1ccc(Cl)c([N+](=O)[O-])c1
survivor count [11]: 0 of 10 on day 20

O=NN(CCF)C(=O)NC1CCCCC1
survivor count [1]: 2 of 10 on day 20
survivor count [2]: 0 of 10 on day 20
survivor count [6]: 0 of 10 on day 20
survivor count [7]: 0 of 10 on day 20

O=S(=O)(O)O
survivor count [7]: 0 of 10 on day 20

CCN1/C(=C/C=C/C=C/c2sc3ccccc3[n+]2CC)Sc2ccccc21
T/C (T/C endpoint: median tumor weight (est.), dose: 0.25 mg/kg/injection, schedule: Q07DX002 (ip), vehicle: saline, higher T/C = larger tumour): 145 % of control
survivor count (T/C endpoint: median tumor weight (est.), dose: 1.0 mg/kg/injection, schedule: Q07DX002 (ip), vehicle: suspension in saline, higher T/C = larger tumour): 4 of 10 on day 20

C=C(C)C(=O)OC1C/C(CO)=C\C(O)C/C(C)=C/C2OC(=O)C(=C)C21 (stereo not drawn)
T/C (T/C endpoint: median tumor weight (est.), dose: 10.0 mg/kg/injection, schedule: Q07DX002 (ip), vehicle: saline + alcohol, higher T/C = larger tumour): 134 % of control
survivor count (T/C endpoint: median tumor weight (est.), dose: 80.0 mg/kg/injection, schedule: Q07DX002 (ip), vehicle: saline + alcohol, higher T/C = larger tumour): 3 of 10 on day 20

O=C(Nc1cccc(Cl)c1)ON1C(=O)C2C(C1=O)C1(Cl)C(Cl)C(Cl)C2(Cl)C1(Cl)Cl (stereo not drawn)
T/C [9]: 131 % of control
survivor count [5]: 0 of 10 on day 20

O=c1ssc(=Nc2ccccc2)n1-c1ccccc1
survivor count (T/C endpoint: median tumor weight (est.), dose: 800.0 mg/kg/injection, schedule: Q07DX002 (ip), vehicle: Klucel (hydroxypropylcellulose) (HPC), higher T/C = larger tumour): 2 of 10 on day 20 and 3 of 9 on day 20

C1=CCOCOC1
T/C [8]: 132 % of control [9 of 10 alive on day 20]
T/C [11]: 148 % of control
survivor count (T/C endpoint: median tumor weight (est.), dose: 200.0 mg/kg/injection, schedule: Q07DX002 (ip), vehicle: saline with Tween-80, higher T/C = larger tumour): 4 of 10 on day 20
survivor count [4]: 0 of 10 on day 20
